Test results from article PMC8576121.
Results are given in words; binding and its absence hold for the method and conditions named. Binding seen in cells or lysates may run through a third protein. Here binding means that the protein was enriched with, or labelled near, the bait; the list need not be complete. For part of these data: A no says only that the protein was not detected with the bait.

By UniProt entry, the sequences of proteins in these tests, tags left out. Where a name states a change or a piece, a line headed by the entry shows the natural chain unless it says otherwise.
UniProt D4GZ79: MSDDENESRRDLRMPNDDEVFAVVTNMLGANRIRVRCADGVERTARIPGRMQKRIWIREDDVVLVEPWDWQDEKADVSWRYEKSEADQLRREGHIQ

Columns and labels:
Assay in all cases: affinity purification with mass spectrometry; N-His6 bait overproduced in H. volcanii; cytoplasmic extract on nickel chelating sepharose at room temperature in 2.1 M NaCl, 20 mM HEPES, 20 mM imidazole; four washes with 30 mM imidazole, elution with 700 mM imidazole; no RNase step, no cross-linking; co-isolated proteins identified by LC-MS/MS; three biological replicates; proteins found in the empty-vector or DHFR controls removed
[1] = molecular target: T1, ribose-1,5-bisphosphate isomerase (proposed new name aIF2Bα) (Haloferax volcanii) (UniProt D4GV73)
T1 sequence: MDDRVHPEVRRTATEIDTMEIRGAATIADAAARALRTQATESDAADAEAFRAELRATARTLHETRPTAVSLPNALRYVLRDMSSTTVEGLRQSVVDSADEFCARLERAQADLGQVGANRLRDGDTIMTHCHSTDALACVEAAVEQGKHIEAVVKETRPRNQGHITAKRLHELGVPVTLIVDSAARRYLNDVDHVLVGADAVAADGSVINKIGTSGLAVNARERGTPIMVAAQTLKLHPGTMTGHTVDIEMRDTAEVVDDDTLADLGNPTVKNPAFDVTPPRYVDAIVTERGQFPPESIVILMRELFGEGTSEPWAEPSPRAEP

[2] = molecular target: T2, translation initiation factor aIF-5B (bacterial-type IF2) (Haloferax volcanii) (UniProt D4GTJ2)
T2 sequence: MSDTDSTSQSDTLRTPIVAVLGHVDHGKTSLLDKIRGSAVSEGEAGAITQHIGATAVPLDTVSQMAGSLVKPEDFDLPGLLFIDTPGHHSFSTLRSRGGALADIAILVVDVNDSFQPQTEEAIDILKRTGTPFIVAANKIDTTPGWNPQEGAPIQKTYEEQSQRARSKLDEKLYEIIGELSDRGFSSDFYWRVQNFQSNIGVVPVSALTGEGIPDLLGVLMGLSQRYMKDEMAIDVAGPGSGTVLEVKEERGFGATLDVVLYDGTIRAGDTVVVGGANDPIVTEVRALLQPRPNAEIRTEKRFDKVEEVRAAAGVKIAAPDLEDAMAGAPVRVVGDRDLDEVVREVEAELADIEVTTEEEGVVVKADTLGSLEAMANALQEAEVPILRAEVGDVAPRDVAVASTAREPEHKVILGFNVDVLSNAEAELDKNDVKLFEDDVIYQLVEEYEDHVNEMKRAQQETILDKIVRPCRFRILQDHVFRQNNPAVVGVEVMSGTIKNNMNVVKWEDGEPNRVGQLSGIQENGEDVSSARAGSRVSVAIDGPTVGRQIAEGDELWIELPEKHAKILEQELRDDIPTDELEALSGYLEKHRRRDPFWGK

[3] = molecular target: T3, translation initiation factor aIF-1A (aIF1A2) (Haloferax volcanii) (UniProt D4GRU5)
T3 sequence: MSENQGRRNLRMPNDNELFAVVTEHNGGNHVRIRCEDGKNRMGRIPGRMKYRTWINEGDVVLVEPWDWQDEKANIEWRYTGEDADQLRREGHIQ

[4] = molecular target: translation initiation factor aIF-1A (aIF1A1) (Haloferax volcanii) (UniProt D4GZ79)
[5] = molecular target: T4, translation initiation factor aIF2 gamma subunit (Haloferax volcanii) (UniProt D4GTD4)
T4 sequence: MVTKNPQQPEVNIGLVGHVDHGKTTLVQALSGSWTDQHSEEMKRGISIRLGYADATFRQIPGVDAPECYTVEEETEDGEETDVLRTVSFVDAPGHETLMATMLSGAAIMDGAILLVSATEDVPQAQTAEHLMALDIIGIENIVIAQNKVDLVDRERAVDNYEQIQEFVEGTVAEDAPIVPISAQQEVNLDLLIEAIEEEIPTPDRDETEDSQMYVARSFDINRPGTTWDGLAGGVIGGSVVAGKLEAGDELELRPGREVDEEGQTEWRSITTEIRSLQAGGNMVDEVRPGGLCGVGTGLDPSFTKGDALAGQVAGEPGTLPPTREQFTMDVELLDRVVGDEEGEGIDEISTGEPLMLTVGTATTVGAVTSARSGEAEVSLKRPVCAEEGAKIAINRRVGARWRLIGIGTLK

[6] = molecular target: T5, translation initiation factor aIF2 alpha subunit (Haloferax volcanii) (UniProt D4GT46)
T5 sequence: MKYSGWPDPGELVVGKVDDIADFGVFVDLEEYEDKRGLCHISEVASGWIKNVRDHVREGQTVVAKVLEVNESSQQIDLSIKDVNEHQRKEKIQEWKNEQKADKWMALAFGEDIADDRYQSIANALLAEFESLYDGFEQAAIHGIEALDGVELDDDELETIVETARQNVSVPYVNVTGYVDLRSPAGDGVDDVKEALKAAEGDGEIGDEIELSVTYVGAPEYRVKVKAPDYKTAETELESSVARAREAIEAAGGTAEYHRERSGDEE

[7] = molecular target: T6, translation initiation factor aIF2 beta subunit / probable RNA-binding protein (aIF2β-2) (Haloferax volcanii) (UniProt D4GVV8)
T6 sequence: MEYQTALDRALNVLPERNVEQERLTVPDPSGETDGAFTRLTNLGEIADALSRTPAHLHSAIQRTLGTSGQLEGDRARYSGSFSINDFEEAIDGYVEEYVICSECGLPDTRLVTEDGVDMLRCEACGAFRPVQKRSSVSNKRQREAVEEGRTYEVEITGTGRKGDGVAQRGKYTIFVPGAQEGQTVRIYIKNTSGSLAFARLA

[8] = molecular target: T7, translation initiation factor aIF2 beta subunit (aIF2β-1) (Haloferax volcanii) (UniProt D4GZP2)
T7 sequence: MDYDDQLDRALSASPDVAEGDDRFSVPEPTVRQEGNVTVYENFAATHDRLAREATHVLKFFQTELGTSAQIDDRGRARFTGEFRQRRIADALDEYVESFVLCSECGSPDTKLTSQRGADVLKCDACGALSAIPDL

[9] = molecular target: T8, NUDIX family hydrolase/eIF-2B domain protein (Haloferax volcanii) (UniProt D4GTG3)
T8 sequence: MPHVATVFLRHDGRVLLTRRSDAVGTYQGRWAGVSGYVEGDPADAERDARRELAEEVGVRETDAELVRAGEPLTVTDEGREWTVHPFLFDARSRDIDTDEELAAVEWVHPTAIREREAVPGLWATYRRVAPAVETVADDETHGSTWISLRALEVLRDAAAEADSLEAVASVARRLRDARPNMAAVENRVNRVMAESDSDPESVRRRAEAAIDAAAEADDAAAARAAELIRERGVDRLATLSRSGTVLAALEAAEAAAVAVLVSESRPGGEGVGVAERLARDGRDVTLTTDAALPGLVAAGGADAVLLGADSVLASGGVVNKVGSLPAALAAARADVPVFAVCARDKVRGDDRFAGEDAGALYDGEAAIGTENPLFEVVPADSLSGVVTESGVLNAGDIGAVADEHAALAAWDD

Molecule | binding [1] | binding [5] | binding [6] | other results
ribulose-1,5-bisphosphate carboxylase/oxygenase (HVO_0970) (enzyme) | no binding | – | – | –
AMP phosphorylase (HVO_0965) (enzyme) | no binding | – | – | –
ribose-1,5-bisphosphate isomerase (proposed new name aIF2Bα) (protein, UniProt D4GV73 1-323) MDDRVHPEVRRTATEIDTMEIRGAATIADAAARALRTQATESDAADAEAFRAELRATARTLHETRPTAVSLPNALRYVLRDMSSTTVEGLRQSVVDSADEFCARLERAQADLGQVGANRLRDGDTIMTHCHSTDALACVEAAVEQGKHIEAVVKETRPRNQGHITAKRLHELGVPVTLIVDSAARRYLNDVDHVLVGADAVAADGSVINKIGTSGLAVNARERGTPIMVAAQTLKLHPGTMTGHTVDIEMRDTAEVVDDDTLADLGNPTVKNPAFDVTPPRYVDAIVTERGQFPPESIVILMRELFGEGTSEPWAEPSPRAEP | – | binds | binds | binding [2]: binds; binding [3]: binds; binding [4]: binds
translation initiation factor aIF-1A (aIF1A2) (protein, UniProt D4GRU5 1-94) MSENQGRRNLRMPNDNELFAVVTEHNGGNHVRIRCEDGKNRMGRIPGRMKYRTWINEGDVVLVEPWDWQDEKANIEWRYTGEDADQLRREGHIQ | – | no binding | no binding | binding [7]: no binding; binding [8]: no binding
eIF-2B domain protein (aIF2Bδ) (protein, UniProt D4GW08 1-282) MIDETIEEIREMQTHSSSVVAVKATRALAELTERDYATVEEFERDLERNVGALKRANPSHASLYNALQDVLHSVQGEADDLDEARELTLSTIDRVVETVETGKRHAAQQAAATIEDGQTFLTHDYSSTVMEAVELAVADGAQLTAYVTEARPRFLGRKFARELAAIDDVEPHLMVDGASGMFLPGCDRVIIGMDCIVEETLYNRIGTFPLVAAANEVGVPVTVVGSGAKVVDGGFRFENEIRSPSEVMLEPVEGIELENPAYDATPVDLIDEVITDEGVIEF | – | – | – | binding [9]: no binding
